Source: publication PMC10361663
These are yes or no findings as the source states them, for the method shown. Binding seen in cells or lysates may run through a third protein. Here binding means that the protein was enriched with, or labelled near, the bait; the list need not be complete.

Protein sequences, listed by entry. Tags and fused reporters are not part of them.
UniProt P33176: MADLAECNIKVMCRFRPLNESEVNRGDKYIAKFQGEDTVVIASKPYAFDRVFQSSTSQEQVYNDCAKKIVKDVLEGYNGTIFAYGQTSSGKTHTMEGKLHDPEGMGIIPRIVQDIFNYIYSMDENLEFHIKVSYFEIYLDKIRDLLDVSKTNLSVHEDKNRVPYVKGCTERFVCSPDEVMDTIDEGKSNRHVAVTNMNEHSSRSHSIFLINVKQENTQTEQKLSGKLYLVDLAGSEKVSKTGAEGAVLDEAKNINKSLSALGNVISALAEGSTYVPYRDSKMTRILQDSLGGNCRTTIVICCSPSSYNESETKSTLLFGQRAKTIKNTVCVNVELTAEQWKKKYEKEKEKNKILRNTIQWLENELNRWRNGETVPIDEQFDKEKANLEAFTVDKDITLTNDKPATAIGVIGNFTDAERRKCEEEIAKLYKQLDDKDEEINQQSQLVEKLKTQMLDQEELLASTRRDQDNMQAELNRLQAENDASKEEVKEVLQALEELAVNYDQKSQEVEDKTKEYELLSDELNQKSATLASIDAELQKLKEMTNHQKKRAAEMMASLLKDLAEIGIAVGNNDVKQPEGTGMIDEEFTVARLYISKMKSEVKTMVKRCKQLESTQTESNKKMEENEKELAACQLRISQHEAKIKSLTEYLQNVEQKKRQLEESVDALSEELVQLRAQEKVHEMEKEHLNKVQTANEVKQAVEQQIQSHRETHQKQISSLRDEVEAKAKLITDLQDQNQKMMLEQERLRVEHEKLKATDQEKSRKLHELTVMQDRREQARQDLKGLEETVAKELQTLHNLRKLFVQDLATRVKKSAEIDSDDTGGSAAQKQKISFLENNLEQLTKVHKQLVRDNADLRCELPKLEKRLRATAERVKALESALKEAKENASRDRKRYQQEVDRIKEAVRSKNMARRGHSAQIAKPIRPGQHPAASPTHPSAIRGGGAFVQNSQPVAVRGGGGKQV

Molecular target: T1, HURP (Hepatoma Upregulated Protein) (human (endogenous in HeLa Kyoto)) (UniProt Q15398)
T1 sequence: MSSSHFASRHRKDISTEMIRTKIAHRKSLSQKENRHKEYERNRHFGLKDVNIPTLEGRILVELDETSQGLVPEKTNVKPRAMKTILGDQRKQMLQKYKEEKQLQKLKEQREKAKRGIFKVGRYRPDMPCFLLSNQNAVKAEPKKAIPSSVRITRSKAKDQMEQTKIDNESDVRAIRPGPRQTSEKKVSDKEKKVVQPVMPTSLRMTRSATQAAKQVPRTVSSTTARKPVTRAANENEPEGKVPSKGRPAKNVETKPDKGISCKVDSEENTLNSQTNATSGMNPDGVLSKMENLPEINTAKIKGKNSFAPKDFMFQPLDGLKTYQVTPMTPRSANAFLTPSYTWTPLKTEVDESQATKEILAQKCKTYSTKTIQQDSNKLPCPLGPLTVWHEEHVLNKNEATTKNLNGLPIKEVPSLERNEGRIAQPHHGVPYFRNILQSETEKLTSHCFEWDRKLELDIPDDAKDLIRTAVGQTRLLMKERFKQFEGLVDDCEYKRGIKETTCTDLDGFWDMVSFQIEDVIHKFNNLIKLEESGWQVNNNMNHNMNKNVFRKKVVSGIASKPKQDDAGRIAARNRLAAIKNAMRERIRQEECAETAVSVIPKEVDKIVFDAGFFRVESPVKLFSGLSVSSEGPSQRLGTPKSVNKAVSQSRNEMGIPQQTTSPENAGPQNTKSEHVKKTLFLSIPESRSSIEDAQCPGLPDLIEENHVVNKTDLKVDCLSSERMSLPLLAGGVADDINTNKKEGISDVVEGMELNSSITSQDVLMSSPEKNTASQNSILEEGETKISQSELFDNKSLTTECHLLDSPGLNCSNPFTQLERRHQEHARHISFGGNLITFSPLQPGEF
Test: affinity purification with mass spectrometry; HeLa Kyoto mitotic extracts immunoprecipitated with an antibody against HURP; isolated complexes analysed by LC-MS/MS

binding: binds
Substance: Kif5B (from UniProt P33176 1-963)
